Measurements taken from the supplement of paper PMC12823440, “Inhibitors supercharge kinase turnover through native proteolytic circuits” (Nature, 2025).
Some of the results follow. Hit calls seldom repeat between salt and free forms of one compound.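 Kinases, fused to nanoluciferase, were expressed in K562 cells; luminescence was measured every 4 h from 2 to 18 h as percent of control (DMSO = 100%, positive control = 0%). A time point is decreased if signal falls significantly (2 sigma). Hits were called by the authors by a rule that is not shown; the count of time points alone does not decide it.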

Protein sequences, listed by entry. Tags and fused reporters are not part of them. Lines headed by an entry give the natural chain unless they say otherwise; changes in a name come on top.
UniProt Q12851: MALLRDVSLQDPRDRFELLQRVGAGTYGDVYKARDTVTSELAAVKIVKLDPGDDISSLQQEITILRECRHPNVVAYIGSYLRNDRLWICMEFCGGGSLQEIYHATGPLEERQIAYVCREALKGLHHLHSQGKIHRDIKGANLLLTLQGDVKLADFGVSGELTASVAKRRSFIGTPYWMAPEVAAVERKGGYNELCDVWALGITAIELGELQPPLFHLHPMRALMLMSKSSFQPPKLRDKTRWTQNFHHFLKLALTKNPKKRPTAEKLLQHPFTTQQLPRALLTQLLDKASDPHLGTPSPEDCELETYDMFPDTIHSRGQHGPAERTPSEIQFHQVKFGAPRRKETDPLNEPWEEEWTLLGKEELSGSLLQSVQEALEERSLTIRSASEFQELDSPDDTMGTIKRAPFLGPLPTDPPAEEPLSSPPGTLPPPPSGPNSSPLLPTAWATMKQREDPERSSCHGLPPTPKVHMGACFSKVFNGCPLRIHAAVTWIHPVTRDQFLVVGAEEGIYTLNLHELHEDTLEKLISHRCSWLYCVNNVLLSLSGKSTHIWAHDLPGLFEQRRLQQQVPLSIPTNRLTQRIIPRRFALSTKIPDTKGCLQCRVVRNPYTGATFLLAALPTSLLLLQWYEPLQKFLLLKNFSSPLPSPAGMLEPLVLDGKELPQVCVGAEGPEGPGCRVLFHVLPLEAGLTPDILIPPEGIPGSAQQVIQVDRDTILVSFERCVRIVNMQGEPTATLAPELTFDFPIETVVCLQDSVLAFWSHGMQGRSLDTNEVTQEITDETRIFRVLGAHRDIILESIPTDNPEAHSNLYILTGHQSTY
UniProt P28482, whole entry: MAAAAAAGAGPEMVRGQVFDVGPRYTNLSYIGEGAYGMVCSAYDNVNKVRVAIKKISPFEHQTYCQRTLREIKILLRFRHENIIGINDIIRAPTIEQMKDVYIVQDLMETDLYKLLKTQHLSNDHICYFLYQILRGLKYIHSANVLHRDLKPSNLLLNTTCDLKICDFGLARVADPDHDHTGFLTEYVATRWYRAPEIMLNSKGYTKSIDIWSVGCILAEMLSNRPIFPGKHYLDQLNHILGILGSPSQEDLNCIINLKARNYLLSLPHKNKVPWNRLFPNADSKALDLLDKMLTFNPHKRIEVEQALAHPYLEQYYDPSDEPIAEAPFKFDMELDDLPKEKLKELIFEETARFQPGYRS
UniProt P49137, whole entry, looked up: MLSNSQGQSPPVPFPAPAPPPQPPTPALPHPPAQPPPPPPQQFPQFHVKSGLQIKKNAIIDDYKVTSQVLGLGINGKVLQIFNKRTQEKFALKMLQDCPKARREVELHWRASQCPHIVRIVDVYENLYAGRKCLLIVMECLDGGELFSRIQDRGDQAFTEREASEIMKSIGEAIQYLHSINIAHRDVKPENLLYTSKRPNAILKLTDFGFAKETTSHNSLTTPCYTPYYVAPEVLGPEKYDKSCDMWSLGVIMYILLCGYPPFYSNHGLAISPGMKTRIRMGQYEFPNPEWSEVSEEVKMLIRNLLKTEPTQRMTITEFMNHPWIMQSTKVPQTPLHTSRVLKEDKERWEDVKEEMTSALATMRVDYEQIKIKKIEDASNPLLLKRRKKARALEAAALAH
UniProt Q9BUB5: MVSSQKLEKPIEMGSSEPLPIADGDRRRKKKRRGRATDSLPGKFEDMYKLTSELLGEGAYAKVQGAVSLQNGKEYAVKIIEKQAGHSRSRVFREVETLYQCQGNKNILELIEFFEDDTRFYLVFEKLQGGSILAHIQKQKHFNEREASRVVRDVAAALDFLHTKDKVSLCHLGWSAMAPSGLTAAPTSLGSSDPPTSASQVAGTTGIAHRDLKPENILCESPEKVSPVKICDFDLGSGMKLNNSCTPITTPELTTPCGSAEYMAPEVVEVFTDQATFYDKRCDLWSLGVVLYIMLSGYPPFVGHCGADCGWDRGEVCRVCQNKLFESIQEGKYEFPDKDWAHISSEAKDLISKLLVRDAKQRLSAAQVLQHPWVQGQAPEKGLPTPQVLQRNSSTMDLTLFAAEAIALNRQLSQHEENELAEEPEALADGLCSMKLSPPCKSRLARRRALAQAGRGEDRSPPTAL
UniProt Q16288, whole entry, looked up: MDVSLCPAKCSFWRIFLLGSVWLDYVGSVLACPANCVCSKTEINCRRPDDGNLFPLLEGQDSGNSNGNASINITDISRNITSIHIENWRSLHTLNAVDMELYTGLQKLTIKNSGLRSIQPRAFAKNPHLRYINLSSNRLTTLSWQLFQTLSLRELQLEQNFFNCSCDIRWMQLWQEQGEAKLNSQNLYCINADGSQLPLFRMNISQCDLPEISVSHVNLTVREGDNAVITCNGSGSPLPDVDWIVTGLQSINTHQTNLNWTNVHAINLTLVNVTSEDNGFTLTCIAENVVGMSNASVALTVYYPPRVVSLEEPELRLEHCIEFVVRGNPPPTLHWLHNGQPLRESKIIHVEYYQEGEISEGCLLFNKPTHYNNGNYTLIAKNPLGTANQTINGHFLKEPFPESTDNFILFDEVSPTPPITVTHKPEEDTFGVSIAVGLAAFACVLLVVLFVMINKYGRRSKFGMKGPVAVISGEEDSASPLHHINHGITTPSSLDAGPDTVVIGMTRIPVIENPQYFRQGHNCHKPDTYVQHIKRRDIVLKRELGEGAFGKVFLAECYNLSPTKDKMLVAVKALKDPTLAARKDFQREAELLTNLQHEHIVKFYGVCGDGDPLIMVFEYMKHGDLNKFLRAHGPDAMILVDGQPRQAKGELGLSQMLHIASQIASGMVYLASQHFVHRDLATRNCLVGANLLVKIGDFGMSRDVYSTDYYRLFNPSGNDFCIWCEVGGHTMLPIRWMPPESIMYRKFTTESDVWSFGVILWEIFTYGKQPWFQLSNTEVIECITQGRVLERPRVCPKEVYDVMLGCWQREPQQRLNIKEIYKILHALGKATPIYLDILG
UniProt O96013: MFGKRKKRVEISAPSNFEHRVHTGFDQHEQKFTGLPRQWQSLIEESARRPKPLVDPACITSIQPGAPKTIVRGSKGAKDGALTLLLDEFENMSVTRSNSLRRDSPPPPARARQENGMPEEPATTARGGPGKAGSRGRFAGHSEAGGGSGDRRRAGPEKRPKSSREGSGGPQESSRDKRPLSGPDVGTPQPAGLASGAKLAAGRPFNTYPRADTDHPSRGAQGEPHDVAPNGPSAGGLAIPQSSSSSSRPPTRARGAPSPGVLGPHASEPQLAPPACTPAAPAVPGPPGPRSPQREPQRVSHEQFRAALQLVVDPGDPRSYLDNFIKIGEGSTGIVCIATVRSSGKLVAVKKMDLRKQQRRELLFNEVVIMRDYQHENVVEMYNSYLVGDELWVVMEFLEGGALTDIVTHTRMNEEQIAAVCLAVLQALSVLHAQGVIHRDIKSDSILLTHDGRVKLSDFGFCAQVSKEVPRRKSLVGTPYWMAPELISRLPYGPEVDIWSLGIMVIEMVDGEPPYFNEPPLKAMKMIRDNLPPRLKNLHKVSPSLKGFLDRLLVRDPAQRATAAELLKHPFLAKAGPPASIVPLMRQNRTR
UniProt Q96KB5: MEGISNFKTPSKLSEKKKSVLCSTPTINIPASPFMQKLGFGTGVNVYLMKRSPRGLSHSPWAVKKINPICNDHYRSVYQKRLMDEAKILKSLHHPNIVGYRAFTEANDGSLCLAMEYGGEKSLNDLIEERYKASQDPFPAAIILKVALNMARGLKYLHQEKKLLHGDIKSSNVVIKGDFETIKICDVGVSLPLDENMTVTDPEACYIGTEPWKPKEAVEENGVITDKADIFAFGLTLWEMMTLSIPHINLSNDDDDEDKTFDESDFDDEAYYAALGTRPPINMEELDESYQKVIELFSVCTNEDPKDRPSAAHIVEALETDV
UniProt P09619, whole entry: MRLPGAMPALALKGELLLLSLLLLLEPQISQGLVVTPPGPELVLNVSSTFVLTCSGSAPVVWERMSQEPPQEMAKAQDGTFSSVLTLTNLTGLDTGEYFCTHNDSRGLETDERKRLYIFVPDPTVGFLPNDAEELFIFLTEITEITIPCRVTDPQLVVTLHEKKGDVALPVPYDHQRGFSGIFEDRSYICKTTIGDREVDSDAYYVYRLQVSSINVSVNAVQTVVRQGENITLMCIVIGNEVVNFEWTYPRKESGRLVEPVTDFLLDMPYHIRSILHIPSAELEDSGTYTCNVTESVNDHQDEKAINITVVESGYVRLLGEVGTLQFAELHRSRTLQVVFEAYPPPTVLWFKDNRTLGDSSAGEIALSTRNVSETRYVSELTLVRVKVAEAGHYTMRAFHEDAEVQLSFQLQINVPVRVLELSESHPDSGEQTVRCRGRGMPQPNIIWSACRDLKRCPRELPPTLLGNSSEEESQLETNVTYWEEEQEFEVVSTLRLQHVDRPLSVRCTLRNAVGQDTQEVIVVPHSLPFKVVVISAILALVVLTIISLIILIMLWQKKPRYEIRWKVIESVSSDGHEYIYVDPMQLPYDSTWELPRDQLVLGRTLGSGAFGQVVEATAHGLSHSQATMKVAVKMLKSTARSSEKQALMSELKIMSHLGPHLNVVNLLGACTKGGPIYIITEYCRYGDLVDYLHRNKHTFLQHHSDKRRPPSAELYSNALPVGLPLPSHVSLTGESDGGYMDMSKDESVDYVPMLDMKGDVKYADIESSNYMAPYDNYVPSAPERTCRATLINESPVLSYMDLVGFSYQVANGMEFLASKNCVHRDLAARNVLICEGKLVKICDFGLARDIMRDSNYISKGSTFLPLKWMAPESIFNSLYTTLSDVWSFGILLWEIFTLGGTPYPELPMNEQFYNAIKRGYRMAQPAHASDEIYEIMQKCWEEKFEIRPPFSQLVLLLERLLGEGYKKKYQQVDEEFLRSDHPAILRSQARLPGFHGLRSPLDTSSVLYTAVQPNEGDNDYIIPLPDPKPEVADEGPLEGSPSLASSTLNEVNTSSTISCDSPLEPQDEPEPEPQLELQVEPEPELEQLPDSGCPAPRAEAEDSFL
UniProt Q15118, whole entry, looked up: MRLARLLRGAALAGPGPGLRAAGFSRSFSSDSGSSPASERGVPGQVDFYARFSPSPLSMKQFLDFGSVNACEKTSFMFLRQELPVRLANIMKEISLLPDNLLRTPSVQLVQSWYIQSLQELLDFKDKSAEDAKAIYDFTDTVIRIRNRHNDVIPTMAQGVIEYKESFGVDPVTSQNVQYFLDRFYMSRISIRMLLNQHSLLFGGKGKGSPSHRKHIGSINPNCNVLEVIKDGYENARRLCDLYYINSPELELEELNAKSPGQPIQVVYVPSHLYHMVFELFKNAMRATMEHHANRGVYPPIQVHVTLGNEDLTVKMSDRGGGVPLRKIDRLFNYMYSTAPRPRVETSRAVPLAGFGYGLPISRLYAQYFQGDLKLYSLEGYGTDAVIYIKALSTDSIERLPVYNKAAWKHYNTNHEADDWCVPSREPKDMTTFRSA
UniProt O15530: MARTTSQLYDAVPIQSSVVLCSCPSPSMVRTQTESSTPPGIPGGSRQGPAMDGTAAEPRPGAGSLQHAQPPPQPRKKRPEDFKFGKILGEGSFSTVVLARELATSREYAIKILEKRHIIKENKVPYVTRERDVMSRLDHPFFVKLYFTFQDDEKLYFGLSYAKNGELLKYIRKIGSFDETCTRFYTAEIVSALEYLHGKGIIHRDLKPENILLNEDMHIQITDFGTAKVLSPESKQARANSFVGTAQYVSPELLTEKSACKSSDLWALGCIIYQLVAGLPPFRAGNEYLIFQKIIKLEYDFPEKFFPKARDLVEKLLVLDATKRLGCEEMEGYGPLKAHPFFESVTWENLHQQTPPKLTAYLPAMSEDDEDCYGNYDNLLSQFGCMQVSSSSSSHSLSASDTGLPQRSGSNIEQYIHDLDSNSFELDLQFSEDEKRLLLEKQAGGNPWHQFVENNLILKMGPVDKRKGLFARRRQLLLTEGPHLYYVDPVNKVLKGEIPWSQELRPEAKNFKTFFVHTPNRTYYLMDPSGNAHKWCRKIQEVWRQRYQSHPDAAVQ
UniProt P53350, whole entry: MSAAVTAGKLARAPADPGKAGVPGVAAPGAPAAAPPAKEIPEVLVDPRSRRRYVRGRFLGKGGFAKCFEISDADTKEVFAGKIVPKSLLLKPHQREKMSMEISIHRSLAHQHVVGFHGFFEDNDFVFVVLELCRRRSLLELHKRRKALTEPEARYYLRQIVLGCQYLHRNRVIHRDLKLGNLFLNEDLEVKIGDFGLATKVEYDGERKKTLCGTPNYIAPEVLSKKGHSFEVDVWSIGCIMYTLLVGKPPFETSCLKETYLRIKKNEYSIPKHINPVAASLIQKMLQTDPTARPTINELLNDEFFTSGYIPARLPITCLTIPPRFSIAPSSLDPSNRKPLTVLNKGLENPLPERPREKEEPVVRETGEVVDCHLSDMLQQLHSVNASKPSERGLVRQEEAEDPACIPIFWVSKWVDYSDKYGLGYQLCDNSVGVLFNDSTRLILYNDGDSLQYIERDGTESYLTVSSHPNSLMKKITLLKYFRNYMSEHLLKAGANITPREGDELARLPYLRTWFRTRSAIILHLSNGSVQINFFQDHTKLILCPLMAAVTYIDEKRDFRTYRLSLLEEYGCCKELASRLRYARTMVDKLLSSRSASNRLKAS

Columns and labels:
Assay in all cases: number of time points (of 5) at which kinase-Nluc abundance scored as decreased, DMSO-normalised (count); higher = more persistent destabilization
Details in all cases: K562; 2-18 h
LMTK2 = LMTK2 (UniProt Q8IWU2)
LYN = LYN (UniProt P07948)
MAP2K1 = MAP2K1 (UniProt Q02750)
MAP2K2 = MAP2K2 (UniProt P36507)
MAP4K2 = MAP4K2 (UniProt Q12851)
MAPK1 = MAPK1 (UniProt P28482)
MAPK4 = MAPK4 (UniProt P31152)
MAPKAPK2 = MAPKAPK2 (UniProt P49137)
MKNK1 = MKNK1 (UniProt Q9BUB5)
NTRK2 = NTRK2 (UniProt Q16620)
NTRK3 = NTRK3 (UniProt Q16288)
PAK4 = PAK4 (UniProt O96013)
PBK = PBK (UniProt Q96KB5)
PDGFRB = PDGFRB (UniProt P09619)
PDK1 = PDK1 (UniProt Q15118)
PDPK1 = PDPK1 (UniProt O15530)
PIK4CA = PIK4CA (UniProt P42356)
PIK4CB = PIK4CB (UniProt Q9UBF8)
PLK1 = PLK1 (UniProt P53350)
PRKAA1 = PRKAA1 (UniProt Q13131)

| Structure (SMILES) | number of time points (LMTK2) | number of time points (LYN) | number of time points (MAP2K1) | number of time points (MAP2K2) | number of time points (MAP4K2) | number of time points (MAPK1) | number of time points (MAPK4) | number of time points (MAPKAPK2) | number of time points (MKNK1) | number of time points (NTRK2) | number of time points (NTRK3) | number of time points (PAK4) | number of time points (PBK) | number of time points (PDGFRB) | number of time points (PDK1) | number of time points (PDPK1) | number of time points (PIK4CA) | number of time points (PIK4CB) | number of time points (PLK1) | number of time points (PRKAA1) |
| --- | --- | --- | --- | --- | --- | --- | --- | --- | --- | --- | --- | --- | --- | --- | --- | --- | --- | --- | --- | --- |
| Nc1ccc(C(=O)Nc2cccc(-c3nc(N4CCOCC4)c4oc5ncccc5c4n3)c2)cn1 (10 µM) | 0 | 0 | 0 | 0 | 0 | 0 | 0 | 0 | 5 | 0 | 0 | 0 | 0 | 3 | 0 | 4 | 0 | 0 | 0 | 0 |
| O=C(Nc1ccc(F)cc1F)C(NC(=S)Nc1cc(C(F)(F)F)cc(C(F)(F)F)c1)c1ccccc1 (racemic) (2.5 µM) | 0 | 0 | 0 | 0 | 0 | 0 | 0 | 0 | 0 | 0 | 0 | 0 | 0 | 0 | 0 | 0 | 0 | 0 | 0 | 0 |
| COc1ccc2cc1Oc1ccc(cc1)C[C@H]1c3cc(c(OC)cc3CCN1C)Oc1c(O)c(OC)cc3c1[C@H](C2)N(C)CC3 [Fangchinoline] (2.5 µM) | 0 | 0 | 0 | 0 | 0 | 0 | 0 | 0 | 0 | 0 | 0 | 0 | 0 | 0 | 0 | 0 | 0 | 0 | 0 | 0 |
| COc1cc(Nc2ccnc3ccc(Br)cc23)cc(OC)c1OC (2.5 µM) | 0 | 1 | 0 | 0 | 1 | 0 | 0 | 0 | 1 | 0 | 0 | 0 | 0 | 0 | 0 | 0 | 0 | 0 | 0 | 0 |
| COc1ccc2nc3ccc(OC)cc3c(SCCCN)c2c1 (10 µM) | 4 | 0 | 0 | 0 | 0 | 0 | 0 | 3 | 3 | 0 | 3 | 0 | 0 | 0 | 2 | 3 | 0 | 3 | 0 | 3 |
| COc1c(Nc2ncc(Cl)c(N[C@H]3[C@@H](C(N)=O)[C@@H]4C=C[C@H]3C4)n2)ccc2c1CC[C@@H](N1CCOCC1)CC2 (10 µM) | 0 | 0 | 0 | 0 | 0 | 0 | 0 | 0 | 0 | 0 | 0 | 0 | 0 | 0 | 0 | 0 | 0 | 0 | 0 | 0 |
| CN1C(=O)[C@@H](NC(=O)c2cc(Cc3ccccc3)on2)COc2ccccc21 (10 µM) | 0 | 0 | 0 | 0 | 0 | 0 | 0 | 0 | 0 | 0 | 0 | 0 | 0 | 0 | 0 | 0 | 0 | 0 | 0 | 0 |
| COc1ccc(-c2cc(=O)c3c(O)cc(O)cc3o2)cc1-c1c(O)cc(O)c2c(=O)cc(-c3ccc(O)cc3)oc12 [Bilobetin] (2.5 µM) | 0 | 0 | 0 | 0 | 0 | 0 | 0 | 0 | 0 | 1 | 0 | 0 | 0 | 0 | 0 | 0 | 0 | 0 | 0 | 0 |
| Cn1c(N2CCO[C@@H](c3ccc(F)cc3)C2)nc(-c2ccncn2)cc1=O (10 µM) | 0 | 0 | 0 | 0 | 0 | 0 | 0 | 0 | 0 | 0 | 0 | 0 | 0 | 0 | 0 | 0 | 0 | 0 | 0 | 0 |
| Nc1ccc(-c2nc3ccc(-c4nc5ccc(N)cc5[nH]4)cc3[nH]2)cc1 (10 µM) | 0 | 0 | 0 | 0 | 0 | 0 | 1 | 0 | 0 | 0 | 0 | 0 | 0 | 0 | 0 | 0 | 0 | 0 | 0 | 0 |
| CN(C)C(=O)c1cc2cnc(Nc3ccc(N4CCN(CCCCNC(=O)COc5cccc6c5C(=O)N(C5CCC(=O)NC5=O)C6=O)CC4)cn3)nc2n1C1CCCC1 (centres undefined) (10 µM) | 0 | 0 | 0 | 0 | 0 | 0 | 0 | 0 | 0 | 0 | 0 | 0 | 0 | 0 | 0 | 0 | 0 | 0 | 0 | 0 |
| COc1ccc(CN2CCC(c3ccc4nc(C(=O)N5CCN(Cc6ccc(C(F)(F)F)cc6)CC5)[nH]c4c3)CC2)cn1 (2.5 µM) | 3 | 0 | 0 | 0 | 0 | 0 | 0 | 0 | 1 | 0 | 1 | 0 | 0 | 0 | 0 | 0 | 0 | 0 | 0 |  |
| O=c1c(O)c(-c2ccc(O)c(O)c2)oc2cc(O)c(O)c(O)c12 [Quercetagetin] (10 µM) | 0 | 0 | 0 | 0 | 0 | 0 | 0 | 0 | 0 | 0 | 0 | 0 | 0 | 0 | 0 | 0 | 0 | 0 | 0 | 0 |
| CC(C)n1cnc2c(Nc3cccc(Cl)c3)nc(N[C@H]3CCCC[C@@H]3N)nc21 (2.5 µM) | 0 | 0 | 0 | 0 | 0 | 0 | 0 | 0 | 0 | 0 | 0 | 0 | 0 | 0 | 0 | 0 | 0 | 0 | 0 | 0 |
| N#Cc1cc(N2CCC(C(=O)N3N=CC[C@H]3c3cc(F)cc(F)c3)CC2)ncn1 (10 µM) | 0 | 0 | 0 | 0 | 0 | 0 | 0 | 0 | 0 | 0 | 0 | 0 | 0 | 0 | 0 | 0 | 0 | 0 | 0 | 0 |
| O=C(Nc1ccnc(NC(=O)C2CC2)c1)c1c(Cl)cccc1Cl (10 µM) | 3 | 0 | 0 | 0 | 0 | 0 | 0 | 0 | 0 | 0 | 0 | 0 | 0 | 0 | 0 | 1 | 0 | 0 | 0 | 0 |
| N#Cc1cnc(Nc2cc(NC[C@H]3CNCCO3)c(C(F)(F)F)cn2)cn1 (10 µM) | 0 | 3 | 0 | 0 | 0 | 0 | 0 | 0 | 0 | 0 | 2 | 0 | 0 | 0 | 0 | 0 | 0 | 0 | 0 | 1 |
| S=C(NCc1ccc2c(c1)OCO2)N1CCN(c2ncnc3c2oc2ccccc23)CC1 [Amuvatinib] (2.5 µM) | 0 | 0 | 0 | 0 | 0 | 0 | 0 | 0 | 0 | 0 | 0 | 0 | 0 | 0 | 0 | 0 | 0 | 0 | 0 | 0 |
| COCCNc1cc(NC(=O)N2CCCc3cc(CN4CCOCC4=O)c(C=O)nc32)ncc1C#N (10 µM) | 0 | 0 | 0 | 0 | 0 | 0 | 0 | 0 | 0 | 0 | 0 | 0 | 0 | 0 | 0 | 0 | 0 | 0 | 0 | 0 |
| CCOC(=O)c1c(C)[nH]c(C=C2C(=O)Nc3ccccc32)c1C (10 µM) | 0 | 0 | 0 | 0 | 0 | 0 | 0 | 0 | 0 | 0 | 0 | 0 | 0 | 0 | 0 | 0 | 0 | 0 | 0 | 0 |
| CC1(C)C=Cc2c(ccc(C(=O)/C=C/c3ccc(O)cc3)c2O)O1 [4-Hydroxylonchocarpin] (10 µM) | 0 | 0 | 0 | 0 | 0 | 0 | 0 | 0 | 0 | 0 | 0 | 0 | 0 | 0 | 0 | 0 | 0 | 0 | 0 | 0 |
| N=C(NC(=N)N1CCCC1)Nc1ccc(OC(F)(F)F)cc1 (10 µM) | 0 | 0 | 0 | 0 | 0 | 0 | 0 | 0 | 0 | 0 | 0 | 0 | 0 | 0 | 0 | 0 | 0 | 0 | 0 | 0 |
| NC(=O)c1c(NC(=O)C2CC2)sc2c1CCCC2 (10 µM) | 0 | 0 | 0 | 0 | 0 | 0 | 0 | 0 | 0 | 0 | 0 | 0 | 0 | 0 | 0 | 0 | 0 | 0 | 0 | 0 |
| CC1=C(C#N)C(c2ccc3[nH]nc(C)c3c2)C(C#N)=C(C)N1 (10 µM) | 0 | 0 | 0 | 0 | 0 | 0 | 0 | 0 | 0 | 0 | 0 | 0 | 0 | 0 | 0 | 0 | 0 | 0 | 0 | 0 |
| Cc1cc2c(F)c(Oc3ncnn4cc(OC[C@@H](C)OC(=O)[C@H](C)N)c(C)c34)ccc2[nH]1 [Brivanib (alaninate)] (10 µM) | 0 | 0 | 0 | 0 | 0 | 0 | 0 | 0 | 0 | 0 | 0 | 0 | 0 | 0 | 0 | 0 | 0 | 0 | 0 | 0 |

Rewritten tab-delimited: seven of the compounds above.
Structure (SMILES)	number of time points (LMTK2)	number of time points (LYN)	number of time points (MAP2K1)	number of time points (MAP2K2)	number of time points (MAP4K2)	number of time points (MAPK1)	number of time points (MAPK4)	number of time points (MAPKAPK2)	number of time points (MKNK1)	number of time points (NTRK2)	number of time points (NTRK3)	number of time points (PAK4)	number of time points (PBK)	number of time points (PDGFRB)	number of time points (PDK1)	number of time points (PDPK1)	number of time points (PIK4CA)	number of time points (PIK4CB)	number of time points (PLK1)	number of time points (PRKAA1)
Nc1ccc(C(=O)Nc2cccc(-c3nc(N4CCOCC4)c4oc5ncccc5c4n3)c2)cn1 (10 µM)	0	0	0	0	0	0	0	0	5	0	0	0	0	3	0	4	0	0	0	0
O=C(Nc1ccc(F)cc1F)C(NC(=S)Nc1cc(C(F)(F)F)cc(C(F)(F)F)c1)c1ccccc1 (racemic) (2.5 µM)	0	0	0	0	0	0	0	0	0	0	0	0	0	0	0	0	0	0	0	0
COc1ccc2cc1Oc1ccc(cc1)C[C@H]1c3cc(c(OC)cc3CCN1C)Oc1c(O)c(OC)cc3c1[C@H](C2)N(C)CC3 [Fangchinoline] (2.5 µM)	0	0	0	0	0	0	0	0	0	0	0	0	0	0	0	0	0	0	0	0
COc1cc(Nc2ccnc3ccc(Br)cc23)cc(OC)c1OC (2.5 µM)	0	1	0	0	1	0	0	0	1	0	0	0	0	0	0	0	0	0	0	0
COc1ccc2nc3ccc(OC)cc3c(SCCCN)c2c1 (10 µM)	4	0	0	0	0	0	0	3	3	0	3	0	0	0	2	3	0	3	0	3
COc1c(Nc2ncc(Cl)c(N[C@H]3[C@@H](C(N)=O)[C@@H]4C=C[C@H]3C4)n2)ccc2c1CC[C@@H](N1CCOCC1)CC2 (10 µM)	0	0	0	0	0	0	0	0	0	0	0	0	0	0	0	0	0	0	0	0
CN1C(=O)[C@@H](NC(=O)c2cc(Cc3ccccc3)on2)COc2ccccc21 (10 µM)	0	0	0	0	0	0	0	0	0	0	0	0	0	0	0	0	0	0	0	0
